# Laboratory results: PubChem BioAssay AID504444 (National Center for Advancing Translational Sciences (NCATS), 2011)
# The campaign covered roughly 360,000 compounds. About 7,500 (2.1%) were called active. Inconclusive results, whose numbers are uncertain, are shown with a selection of clear calls. Calls come from the whole dose curve; as a rule, active = well fitted inhibition curve with a large enough effect; inconclusive = small, poorly fitted or top-dose-only effect, or effect the other way; inactive = flat fitted curve, though single readings scatter. Where the call is inconclusive, the potency comes from a doubtful curve fit.
# Assay: Nrf2 qHTS screen for inhibitors; note: nearly all actives have a fitted effect of over 60% in size
# Conditions: A549 ARE-Fluc reporter, luciferase luminescence, 18-24 h; series mostly up to 46 µM
# In short: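 Reporter: ARE-Fluc in A549. Exposure: 18-24 h, 37 °C, 5% CO2, 5% FBS OPTI-MEM. Readouts: fluorescent cytotoxicity (CellTiter-Fluor), then luminescent Nrf2 signal after BugLite.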
# Potency is the fitted concentration of half-maximal effect.
row,SMILES,Potency
1,CCN(CC)C(=O)c1ccc(S(=O)(=O)Cc2ccc(C)cc2)c([N+](=O)[O-])c1,"inconclusive: 20.6 µM [falling, single point]"
2,Cc1ccccc1OCc1nc2ccccc2n1C,"inconclusive: 18.4 µM [activator, partial curve]"
3,CCOC(=O)c1cnc2c(OC)cccc2c1Nc1ccc2c(c1)OCCO2,"inconclusive: 16.4 µM [falling, single point]"
4,Cc1ccc(C)c(N2CCN(C(=O)c3ccc4[nH]c(C)c(C)c4c3)CC2)c1,"inconclusive: 25.9 µM [falling, partial curve, poor fit]"
5,CC(C)c1nc2cc(C(=O)N3CCNC(=O)C3c3ccc(F)cc3)ccc2o1 (stereo not drawn),"inconclusive: 29.1 µM [falling, single point]"
6,O=C(Nc1ccncc1)C1CCC(CNS(=O)(=O)c2cccc3nsnc23)CC1 (stereo not drawn),"inconclusive: 29.1 µM [falling, single point]"
7,COc1ccc(Cc2nnc(N/N=C/c3ccccc3O)[nH]c2=O)cc1OC,"inconclusive: 13 µM [falling, partial curve]"
8,COC(=O)c1ccc(-c2ncc(-c3cccc4ccccc34)o2)cc1,"inconclusive: 8.2 µM [activator, partial curve]"
9,COc1ccc(C2Nc3ccccc3C(=O)N2Cc2ccccc2)cc1COc1ccccn1 (stereo not drawn),inactive
10,Cc1ccc(S(=O)(=O)c2nc(Nc3ccccc3C#N)sc2Cl)cc1,inactive
11,CCOC(=O)N1CCN(c2ccncc2S(=O)(=O)N2CCCCC2)CC1,inactive
12,N#C/C(=N\Nc1ccccc1)C(=N)N1CCCCCC1,"inconclusive: 7.31 µM [activator, partial curve]"
13,COc1ccc(C2=NCCn3nc4cc(OC)ccc4c32)cc1,inactive
14,Cc1[nH]c2ccc(C(=O)OC(C)C(=O)N(C)C3CCCCC3)cc2c1C (stereo not drawn),"inconclusive: 32.6 µM [falling, single point]"
15,COc1cc(/C=C/C2=NNC(=O)CC2)cc(OC)c1OC,inactive
16,CC1(C)CC(=O)C(C=Nc2ccc(O)c(N=CC3=C(O)CC(C)(C)CC3=O)c2)=C(O)C1,"inconclusive: 2.59 µM [falling, partial curve, poor fit]"
17,O=C(NC1CCCC1)C(c1ccccc1)N(C(=O)c1csnn1)C1CCCC1 (stereo not drawn),"inconclusive: 20.6 µM [activator, single point]"
18,O=C(COc1ccc(Oc2ccccc2)cc1)NC1CCS(=O)(=O)C1 (stereo not drawn),"inconclusive: 20.6 µM [falling, partial curve]"
19,Cc1ccc(C(=O)OCC(=O)NCCN2C(=O)CSC2=O)cc1[N+](=O)[O-],"inconclusive: 29.1 µM [falling, single point]"
20,COc1ccc(CNC(=O)C2CCN(C(=O)c3ccc(-c4ccccc4)cc3)CC2)cc1,"inconclusive: 25.9 µM [falling, partial curve]"
21,CN(C)C(=O)c1cc(S(=O)(=O)N(C)C)c(Cl)cc1N1CCCC1,inactive
22,COc1ccc(NC(=O)c2cc(-c3ccccc3O)no2)cc1,"inconclusive: 32.6 µM [falling, single point]"

# Pulled by compound from the list above (3):
row,SMILES,Potency
22,COc1ccc(NC(=O)c2cc(-c3ccccc3O)no2)cc1,"inconclusive: 32.6 µM [falling, single point]"
16,CC1(C)CC(=O)C(C=Nc2ccc(O)c(N=CC3=C(O)CC(C)(C)CC3=O)c2)=C(O)C1,"inconclusive: 2.59 µM [falling, partial curve, poor fit]"
10,Cc1ccc(S(=O)(=O)c2nc(Nc3ccccc3C#N)sc2Cl)cc1,inactive

# (list continues)

row,SMILES,Potency
1,O=C(CSc1nc(-c2cccs2)nc2cc(=O)[nH]n12)Nc1ccc(F)cc1,inactive
2,O=c1c([N+](=O)[O-])cccn1Cc1ccc(F)cc1Cl,active: 25.9 µM
3,CCN1C(=O)N[C@@H](c2cccc(F)c2)C(C(=O)OC)=C1C,inactive
4,C#Cc1ccc([C@@H]2C=C(C(=O)N3CCN(Cc4ccc5c(c4)OCO5)CC3)O[C@H](OCC)[C@H]2CCCO)cc1,"inconclusive: 25.9 µM [falling, single point]"
5,Cc1ccc2oc(Nc3nc(-c4ccccc4)cc(=O)[nH]3)nc2c1,"inconclusive: 4.11 µM [activator, full curve, poor fit]"
6,COCCCn1c(O)c(/C=C2\N=C(C#N)C(=Nc3ccc(C)cc3)O2)sc1=S,"inconclusive: 29.1 µM [falling, single point]"
7,O=C(COC(=O)c1cccc(S(=O)(=O)N2CCOCC2)c1)c1ccccc1,"inconclusive: 13 µM [activator, partial curve, poor fit]"
8,CCOC(=O)COc1nc(Nc2ccccc2C)nc(N(C)C)n1,"inconclusive: 31.6 µM [activator, partial curve, poor fit]"
9,Cn1c(SCc2ccc(Br)cc2)nnc1-c1cccs1,"inconclusive: 2.06 µM [falling, partial curve, poor fit]"
10,COc1ccccc1/C=C/c1nc2ccccc2c(=O)o1,"inconclusive: 5.17 µM [activator, full curve]"
11,O=C(Cc1cccs1)Nc1nc2c(s1)CCCC2,"inconclusive: 1.46 µM [activator, partial curve, poor fit]"
12,O=C(Nc1ccc2nc(SCC(=O)N3CCCC3)sc2c1)c1ccccc1F,"inconclusive: 32.6 µM [falling, single point]"
13,COc1ccccc1OCCC(=O)OCC(=O)Nc1ncc(Cl)cc1Cl,"inconclusive: 0.082 µM [activator, full curve, poor fit]"
14,O=C(COc1ccc(Br)cc1)Nc1ccccc1C(=O)NC1CC1,inactive
15,Cn1cccc1/C=N/NC(=O)c1cccc(OC(F)(F)C(F)F)c1,"inconclusive: 4.61 µM [activator, full curve, poor fit]"
16,COCc1nnc(NC(=O)c2ccc3c(c2)OCO3)s1,"inconclusive: 9.2 µM [activator, partial curve]"
17,CC1Cc2cc(-c3csc(NC(=O)Cc4ccccc4)n3)ccc2N1S(C)(=O)=O (stereo not drawn),active: 14.6 µM
18,CCOC(=O)N1CCN(C(=O)c2cc(COc3cccc(C(F)(F)F)c3)on2)CC1,"inconclusive: 2.59 µM [activator, full curve, poor fit]"
19,CC(=Nc1ccccc1O)c1sc2ccccc2c1O,"inconclusive: 29.1 µM [activator, single point]"
20,C/C(CC(=O)NCc1ccccc1)=N\NC(=O)c1cnccn1,"inconclusive: 0.651 µM [activator, partial curve, poor fit]"
21,Cc1ccc(-c2csc(NC(=O)c3cccc(N4C(=O)CCC4=O)c3)n2)o1,"inconclusive: 32.6 µM [falling, single point]"
